According to paper PMC4683079:
Results are given in words; binding and its absence hold for the method and conditions named. Binding seen in cells or lysates may run through a third protein. Binding calls can cover weak binding; strength is not graded here. Where a sequence is shown, tags or fusion partners need not be part of it. Blank lines part the entries; values can stand above or below the molecule they belong to.

How the values were obtained:
Test in all cases: co-IP; MCF7 cells co-transfected, lysed 48 h later in TBS (50 mM Tris pH 7.5, 150 mM NaCl) with 0.5% NP-40; IP with anti-myc, anti-HA or anti-Flag M2 and Protein A Sepharose at 4°C; five washes with lysis buffer; Western blot
[1] = target: T1, myc-tagged full-length human PTK7 (PTK7-MT) (human) (UniProt Q13308)
T1 sequence: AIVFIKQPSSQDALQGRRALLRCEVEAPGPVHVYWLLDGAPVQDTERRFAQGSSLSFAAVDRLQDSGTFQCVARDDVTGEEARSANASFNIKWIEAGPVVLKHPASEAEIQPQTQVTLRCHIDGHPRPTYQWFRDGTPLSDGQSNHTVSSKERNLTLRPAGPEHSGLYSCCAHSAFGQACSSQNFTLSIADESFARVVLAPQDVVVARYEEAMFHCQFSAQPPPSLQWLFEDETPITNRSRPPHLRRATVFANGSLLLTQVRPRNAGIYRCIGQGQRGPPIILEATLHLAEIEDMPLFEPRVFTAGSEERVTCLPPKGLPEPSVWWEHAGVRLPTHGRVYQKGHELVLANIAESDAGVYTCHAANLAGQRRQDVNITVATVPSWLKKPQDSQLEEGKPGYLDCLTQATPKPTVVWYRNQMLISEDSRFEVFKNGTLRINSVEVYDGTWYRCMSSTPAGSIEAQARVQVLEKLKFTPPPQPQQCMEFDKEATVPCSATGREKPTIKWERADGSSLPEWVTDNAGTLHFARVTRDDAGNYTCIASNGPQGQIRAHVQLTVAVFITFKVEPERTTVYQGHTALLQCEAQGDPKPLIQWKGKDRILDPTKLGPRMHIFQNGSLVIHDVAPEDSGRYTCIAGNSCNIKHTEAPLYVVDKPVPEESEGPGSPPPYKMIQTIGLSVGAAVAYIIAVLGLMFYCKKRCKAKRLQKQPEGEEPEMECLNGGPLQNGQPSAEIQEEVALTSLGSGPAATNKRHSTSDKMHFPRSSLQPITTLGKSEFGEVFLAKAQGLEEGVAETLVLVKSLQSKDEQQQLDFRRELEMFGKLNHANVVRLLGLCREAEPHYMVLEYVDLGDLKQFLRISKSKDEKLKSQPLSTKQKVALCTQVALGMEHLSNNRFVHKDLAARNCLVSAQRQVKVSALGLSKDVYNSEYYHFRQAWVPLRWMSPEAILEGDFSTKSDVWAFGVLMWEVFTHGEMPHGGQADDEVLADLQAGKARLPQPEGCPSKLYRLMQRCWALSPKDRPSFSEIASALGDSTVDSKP

Ror2Δ745-Flag = target: Ror2Δ745-Flag
Ror2ΔCRD/KR∆745-Flag = target: Ror2ΔCRD/KR∆745-Flag
[2] = target: mouse Ror2∆469-Flag (mouse)

- binding [1]: binds
Molecule: Xenopus Ror2-EGFP (receptor)

- binding (Ror2Δ745-Flag): binds
- binding (Ror2ΔCRD/KR∆745-Flag): binds
- binding [2]: binds
B1: myc-tagged full-length human PTK7 (PTK7-MT) (receptor, UniProt Q13308 31-1070)
chain: T1 sequence
